The source of these data is the supplement of paper PMC10849652.

Chains of the proteins cited; added tags and fusions are not shown. Lines headed by an entry give the natural chain unless they say otherwise; changes in a name come on top.
UniProt O43670: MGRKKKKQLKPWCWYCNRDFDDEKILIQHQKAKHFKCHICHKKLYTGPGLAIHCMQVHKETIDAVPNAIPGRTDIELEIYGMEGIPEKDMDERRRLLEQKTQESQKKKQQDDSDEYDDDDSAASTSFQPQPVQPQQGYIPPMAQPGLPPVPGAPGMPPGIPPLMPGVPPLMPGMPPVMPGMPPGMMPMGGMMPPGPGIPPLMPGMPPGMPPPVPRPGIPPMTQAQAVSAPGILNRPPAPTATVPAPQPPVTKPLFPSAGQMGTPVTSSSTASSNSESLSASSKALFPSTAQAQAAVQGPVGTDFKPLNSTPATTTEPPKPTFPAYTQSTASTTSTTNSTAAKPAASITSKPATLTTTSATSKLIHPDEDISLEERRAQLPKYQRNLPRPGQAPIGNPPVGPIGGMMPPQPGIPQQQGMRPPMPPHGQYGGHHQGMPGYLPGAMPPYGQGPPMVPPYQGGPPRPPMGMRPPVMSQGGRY
UniProt O43829: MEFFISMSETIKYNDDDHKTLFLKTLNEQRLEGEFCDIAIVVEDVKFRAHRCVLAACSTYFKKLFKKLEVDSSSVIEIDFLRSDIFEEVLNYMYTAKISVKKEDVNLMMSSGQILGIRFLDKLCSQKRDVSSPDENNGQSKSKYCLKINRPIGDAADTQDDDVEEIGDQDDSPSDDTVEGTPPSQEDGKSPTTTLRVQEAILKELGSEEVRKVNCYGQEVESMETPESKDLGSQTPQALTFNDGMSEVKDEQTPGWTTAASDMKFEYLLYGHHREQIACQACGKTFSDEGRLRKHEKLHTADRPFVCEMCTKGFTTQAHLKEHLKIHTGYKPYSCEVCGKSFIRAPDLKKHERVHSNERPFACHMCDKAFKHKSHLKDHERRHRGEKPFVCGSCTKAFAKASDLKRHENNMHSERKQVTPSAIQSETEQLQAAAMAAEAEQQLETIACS
UniProt Q9BWQ6: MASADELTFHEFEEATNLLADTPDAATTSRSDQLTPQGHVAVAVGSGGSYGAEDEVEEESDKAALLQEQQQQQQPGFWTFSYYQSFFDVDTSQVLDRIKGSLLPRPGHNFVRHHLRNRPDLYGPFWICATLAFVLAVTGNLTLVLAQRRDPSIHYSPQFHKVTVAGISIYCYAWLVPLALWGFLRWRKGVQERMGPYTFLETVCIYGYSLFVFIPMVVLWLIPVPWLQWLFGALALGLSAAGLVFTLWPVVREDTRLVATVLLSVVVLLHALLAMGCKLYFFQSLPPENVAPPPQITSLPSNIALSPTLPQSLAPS
UniProt P58557: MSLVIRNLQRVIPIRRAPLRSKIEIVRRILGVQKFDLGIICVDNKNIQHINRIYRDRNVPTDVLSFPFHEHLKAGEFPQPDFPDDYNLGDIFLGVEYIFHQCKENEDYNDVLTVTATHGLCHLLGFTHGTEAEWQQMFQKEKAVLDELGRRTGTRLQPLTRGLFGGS
UniProt Q9H1B5: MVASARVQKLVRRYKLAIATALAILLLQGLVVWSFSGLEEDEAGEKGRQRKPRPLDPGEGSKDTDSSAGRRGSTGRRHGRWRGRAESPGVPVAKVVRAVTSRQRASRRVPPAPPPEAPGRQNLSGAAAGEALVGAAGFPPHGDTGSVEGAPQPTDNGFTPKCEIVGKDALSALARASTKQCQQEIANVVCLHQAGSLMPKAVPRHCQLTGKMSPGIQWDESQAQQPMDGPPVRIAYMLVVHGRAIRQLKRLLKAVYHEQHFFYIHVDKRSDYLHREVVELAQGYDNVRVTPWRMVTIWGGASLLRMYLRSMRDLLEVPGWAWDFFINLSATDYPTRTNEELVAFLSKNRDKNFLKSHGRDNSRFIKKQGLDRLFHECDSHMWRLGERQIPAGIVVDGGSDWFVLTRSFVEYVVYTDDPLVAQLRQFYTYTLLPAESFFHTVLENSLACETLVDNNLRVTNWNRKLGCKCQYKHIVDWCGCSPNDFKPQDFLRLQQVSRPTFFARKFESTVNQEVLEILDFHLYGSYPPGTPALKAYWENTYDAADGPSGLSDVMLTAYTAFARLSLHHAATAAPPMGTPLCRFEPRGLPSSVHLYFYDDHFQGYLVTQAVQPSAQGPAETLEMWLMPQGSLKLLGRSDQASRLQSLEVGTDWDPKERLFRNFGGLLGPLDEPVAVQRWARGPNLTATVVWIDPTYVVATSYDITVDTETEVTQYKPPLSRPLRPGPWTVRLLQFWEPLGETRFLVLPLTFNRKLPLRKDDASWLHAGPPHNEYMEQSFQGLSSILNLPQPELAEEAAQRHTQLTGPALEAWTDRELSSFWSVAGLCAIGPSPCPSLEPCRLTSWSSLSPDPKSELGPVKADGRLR
UniProt O75191: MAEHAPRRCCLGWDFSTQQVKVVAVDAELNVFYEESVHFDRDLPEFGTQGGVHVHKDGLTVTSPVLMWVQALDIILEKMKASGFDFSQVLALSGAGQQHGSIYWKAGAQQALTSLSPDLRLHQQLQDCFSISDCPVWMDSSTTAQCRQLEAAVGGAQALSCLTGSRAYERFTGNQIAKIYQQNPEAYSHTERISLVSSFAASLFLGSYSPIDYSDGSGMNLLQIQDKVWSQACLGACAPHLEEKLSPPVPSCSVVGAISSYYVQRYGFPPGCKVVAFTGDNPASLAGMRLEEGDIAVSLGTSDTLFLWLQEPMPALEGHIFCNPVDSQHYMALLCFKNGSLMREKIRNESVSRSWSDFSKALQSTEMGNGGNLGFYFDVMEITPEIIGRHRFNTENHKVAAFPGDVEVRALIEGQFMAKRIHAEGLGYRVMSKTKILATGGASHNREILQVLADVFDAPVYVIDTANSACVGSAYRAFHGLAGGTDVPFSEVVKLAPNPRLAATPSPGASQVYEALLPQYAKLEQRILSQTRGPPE
UniProt Q9UK10: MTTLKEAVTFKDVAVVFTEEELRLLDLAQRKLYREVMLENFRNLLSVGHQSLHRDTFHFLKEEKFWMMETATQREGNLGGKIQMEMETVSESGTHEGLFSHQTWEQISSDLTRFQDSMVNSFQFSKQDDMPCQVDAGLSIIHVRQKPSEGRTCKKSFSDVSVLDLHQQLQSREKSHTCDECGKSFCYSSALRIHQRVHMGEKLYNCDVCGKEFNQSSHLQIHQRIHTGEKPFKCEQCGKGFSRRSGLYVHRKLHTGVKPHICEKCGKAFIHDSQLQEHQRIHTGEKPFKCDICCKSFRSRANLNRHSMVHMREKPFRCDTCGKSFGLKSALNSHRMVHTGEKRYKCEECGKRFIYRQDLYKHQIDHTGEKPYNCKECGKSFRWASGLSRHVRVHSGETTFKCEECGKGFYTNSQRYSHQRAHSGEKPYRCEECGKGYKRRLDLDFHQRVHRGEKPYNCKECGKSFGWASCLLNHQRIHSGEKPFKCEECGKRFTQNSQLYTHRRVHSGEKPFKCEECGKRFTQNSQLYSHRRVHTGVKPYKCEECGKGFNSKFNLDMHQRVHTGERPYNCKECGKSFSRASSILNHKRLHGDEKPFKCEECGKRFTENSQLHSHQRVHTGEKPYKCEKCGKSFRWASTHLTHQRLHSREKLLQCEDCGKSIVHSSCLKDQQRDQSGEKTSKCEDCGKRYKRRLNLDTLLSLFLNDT
UniProt Q969W1: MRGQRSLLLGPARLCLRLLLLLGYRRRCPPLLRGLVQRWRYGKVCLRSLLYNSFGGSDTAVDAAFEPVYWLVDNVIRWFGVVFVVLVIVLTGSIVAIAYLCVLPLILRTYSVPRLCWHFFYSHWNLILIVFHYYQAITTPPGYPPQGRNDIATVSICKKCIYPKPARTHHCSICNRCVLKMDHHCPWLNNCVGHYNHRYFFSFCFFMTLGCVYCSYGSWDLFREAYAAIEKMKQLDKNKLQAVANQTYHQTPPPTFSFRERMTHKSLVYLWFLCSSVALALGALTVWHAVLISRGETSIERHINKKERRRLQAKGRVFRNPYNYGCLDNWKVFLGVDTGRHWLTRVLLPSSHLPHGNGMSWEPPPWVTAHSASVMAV
UniProt Q9H6R6: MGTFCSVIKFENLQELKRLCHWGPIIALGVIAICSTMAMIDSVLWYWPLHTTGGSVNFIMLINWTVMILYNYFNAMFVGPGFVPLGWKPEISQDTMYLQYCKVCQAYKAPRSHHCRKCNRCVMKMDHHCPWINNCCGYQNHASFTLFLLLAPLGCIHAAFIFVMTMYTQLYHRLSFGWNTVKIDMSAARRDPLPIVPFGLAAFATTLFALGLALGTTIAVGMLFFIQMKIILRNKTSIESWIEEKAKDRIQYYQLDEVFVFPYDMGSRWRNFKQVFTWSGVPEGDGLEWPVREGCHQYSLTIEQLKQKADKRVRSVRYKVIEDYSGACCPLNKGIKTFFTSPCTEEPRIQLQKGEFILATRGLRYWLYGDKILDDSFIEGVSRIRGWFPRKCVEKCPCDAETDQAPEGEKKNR
UniProt Q9UGR2: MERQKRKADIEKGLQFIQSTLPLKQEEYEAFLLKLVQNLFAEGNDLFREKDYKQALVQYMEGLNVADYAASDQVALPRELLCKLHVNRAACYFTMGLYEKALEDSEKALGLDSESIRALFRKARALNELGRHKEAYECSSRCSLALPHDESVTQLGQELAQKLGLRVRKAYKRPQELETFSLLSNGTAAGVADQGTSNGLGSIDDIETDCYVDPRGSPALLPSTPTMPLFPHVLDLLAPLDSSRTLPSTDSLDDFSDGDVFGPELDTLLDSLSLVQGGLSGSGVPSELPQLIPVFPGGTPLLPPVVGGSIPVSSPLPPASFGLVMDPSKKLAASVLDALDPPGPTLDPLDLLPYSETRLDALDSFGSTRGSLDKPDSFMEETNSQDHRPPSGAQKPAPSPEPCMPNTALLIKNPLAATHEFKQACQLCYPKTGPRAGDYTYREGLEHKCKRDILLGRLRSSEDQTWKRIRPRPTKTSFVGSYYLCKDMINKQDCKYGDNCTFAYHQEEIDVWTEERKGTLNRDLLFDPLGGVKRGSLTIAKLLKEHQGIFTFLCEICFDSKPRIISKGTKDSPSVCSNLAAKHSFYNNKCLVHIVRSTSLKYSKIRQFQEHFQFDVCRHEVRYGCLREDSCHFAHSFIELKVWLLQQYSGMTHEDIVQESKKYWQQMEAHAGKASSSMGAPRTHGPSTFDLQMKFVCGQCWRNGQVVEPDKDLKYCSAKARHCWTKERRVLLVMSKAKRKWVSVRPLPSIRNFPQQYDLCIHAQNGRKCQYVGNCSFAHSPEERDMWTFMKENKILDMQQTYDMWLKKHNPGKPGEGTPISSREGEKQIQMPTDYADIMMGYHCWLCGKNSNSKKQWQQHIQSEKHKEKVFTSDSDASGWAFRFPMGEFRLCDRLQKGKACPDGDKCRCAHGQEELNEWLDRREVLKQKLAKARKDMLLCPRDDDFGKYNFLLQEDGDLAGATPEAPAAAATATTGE
UniProt Q96DA0: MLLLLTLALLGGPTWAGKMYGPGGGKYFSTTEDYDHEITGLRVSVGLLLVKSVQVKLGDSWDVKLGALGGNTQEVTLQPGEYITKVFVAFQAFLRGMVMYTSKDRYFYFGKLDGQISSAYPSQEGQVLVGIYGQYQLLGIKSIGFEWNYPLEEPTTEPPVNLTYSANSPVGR
UniProt O43543: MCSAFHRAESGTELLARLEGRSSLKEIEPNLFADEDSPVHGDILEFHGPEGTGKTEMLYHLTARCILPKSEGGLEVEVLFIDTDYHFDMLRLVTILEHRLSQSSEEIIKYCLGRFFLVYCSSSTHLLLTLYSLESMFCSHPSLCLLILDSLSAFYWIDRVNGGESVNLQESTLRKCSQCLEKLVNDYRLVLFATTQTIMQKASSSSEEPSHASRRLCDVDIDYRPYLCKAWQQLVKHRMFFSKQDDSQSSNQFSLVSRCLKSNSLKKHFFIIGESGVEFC
UniProt O75152: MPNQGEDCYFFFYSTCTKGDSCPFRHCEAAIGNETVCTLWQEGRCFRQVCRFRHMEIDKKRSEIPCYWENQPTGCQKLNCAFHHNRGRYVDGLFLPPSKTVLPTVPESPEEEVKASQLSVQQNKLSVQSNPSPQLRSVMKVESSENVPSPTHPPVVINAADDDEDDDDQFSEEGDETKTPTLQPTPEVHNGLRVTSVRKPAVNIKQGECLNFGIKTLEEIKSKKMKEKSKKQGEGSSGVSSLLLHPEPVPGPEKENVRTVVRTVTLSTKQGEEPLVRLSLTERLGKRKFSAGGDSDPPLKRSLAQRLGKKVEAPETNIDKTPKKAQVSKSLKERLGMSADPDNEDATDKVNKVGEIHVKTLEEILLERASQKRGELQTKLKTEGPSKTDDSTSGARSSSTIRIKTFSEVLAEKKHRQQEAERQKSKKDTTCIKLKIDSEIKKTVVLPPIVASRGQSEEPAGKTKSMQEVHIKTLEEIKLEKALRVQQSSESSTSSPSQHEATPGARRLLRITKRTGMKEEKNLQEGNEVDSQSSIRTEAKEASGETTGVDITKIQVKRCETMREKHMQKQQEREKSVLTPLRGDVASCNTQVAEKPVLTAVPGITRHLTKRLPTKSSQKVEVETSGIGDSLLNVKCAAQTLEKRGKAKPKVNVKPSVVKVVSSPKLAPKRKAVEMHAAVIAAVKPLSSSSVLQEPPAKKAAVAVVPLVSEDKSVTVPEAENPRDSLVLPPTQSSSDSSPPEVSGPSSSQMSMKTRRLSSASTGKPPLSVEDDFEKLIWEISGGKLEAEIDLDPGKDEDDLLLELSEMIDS

What all share (experiment): log2 fold change, soluble protein after heating vs DMSO (PISA); higher = thermal stabilisation; K562 cells, 10 uM, 30 min; active = over 0.2 and 3.5 SD of the protein, either way, in both replicates (recomputed)
Compound in experiment [1]: C1COCCN1CCN2C3=CC=CC=C3N=C2NC(=O)C4=CC(=CC=C4)[N+](=O)[O-] [IRAK-1-4 Inhibitor I]
In outline:
(§1)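 Thermal stability values are relative to control samples and come from duplicates. They are expressed as log2 fold changes. For measurement, K562 cells (2×10^6 cells/mL) received 10 μM compound for 30 min, and aliquots were heated for 3 min over 48°C-58°C, pooled, and extracted at 4°C in PBS with 0.5% NP-40. Soluble protein, the supernatant after 21,000xg for 90 min, was quantified by TMTpro 16plex LC-MS/MS with equalised channel sums.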

Compound in experiment [2]: CC(C)(C)Cn1c(N)nc2ccc(-c3[nH]c(C(C)(C)C)nc3-c3ccc(F)cc3)nc21 [ralimetinib]
In outline: as §1

Compound in experiment [3]: CC(C)C1=C2N=C(C=C(N2N=C1)NCC3=CC=CC=C3)NCCCCCCN
In outline: as §1

Compound in experiment [4]: CC(C)C[C@@H](C=O)NC(=O)[C@H](CC(C)C)NC(=O)[C@H](CC(C)C)NC(=O)OCc1ccccc1
In outline: as §1

Compound in experiment [5]: CC(C)N(C[C@H]1O[C@@H](n2cnc3c(N)ncnc32)[C@H](O)[C@@H]1O)[C@H]1C[C@@H](CCc2nc3cc(C(C)(C)C)ccc3[nH]2)C1 [pinometostat]
In outline: as §1

Compound in experiment [6]: CC1=C(C2=C(C=C1)C(=O)C3=CC=CC=C3N2CCCN)C
In outline: as §1

Compound in experiment [7]: C=CC(=O)N1CCC[C@@H](n2nc(-c3ccc(Oc4ccccc4)cc3)c3c(N)ncnc32)C1 [ibrutinib]
In outline: as §1

Compound in experiment [8]: CC(=O)c1cnc2ccc(-c3cc(Cl)c(O)c(Cl)c3)nc2c1N[C@H]1CC[C@H](CN(C)C)CC1
In outline: as §1

Compound in experiment [9]: CC(C)(O)CC(=O)NCCn1ccc2ncnc(Nc3ccc(Oc4cccc(C(F)(F)F)c4)c(Cl)c3)c21
In outline:
as §1

Compound in experiment [10]: CC1=C(C(CC(=O)N1)C2=CC=C(C=C2)C(F)(F)F)C(=O)NC3=C(C=C4C(=C3)C=NN4)F
In outline: as §1

The other results are listed elsewhere or left out. Residues, ends and D or L forms follow the SMILES beside them. *: point of attachment. Cbz = O=C(OCc1ccccc1)*

Regarding ZNF22 (UniProt P17026), the log2 fold change in experiment [1] is inactive: -0.382; in [2], inactive: 0.189; in experiment [3] it was inactive: -0.012; in experiment [4], inactive: 0.071; in experiment [5] it was inactive: 0.305; in experiment [6], inactive: -0.057.
Consider ZNF207 isoform 2 (UniProt O43670), for which the log2 fold change in experiment [7] is inactive: -0.037; in experiment [8], inactive: -0.164; in [2] it was inactive: -0.049; in experiment [9] it was inactive: 0.005; in experiment [3] it was inactive: -0.071; in experiment [4] it was inactive: 0.003. Besides, the log2 fold change is inactive: 0.129 in experiment [10] and inactive: 0.02 in experiment [6].
With ZBTB14 (UniProt O43829), the log2 fold change in experiment [7] is inactive: 0.017; in experiment [2], inactive: 0.04; in experiment [3], inactive: 0.1; in experiment [4], inactive: -0.039; in experiment [6] it was inactive: 0.411.
As for YIPF2 (UniProt Q9BWQ6), the log2 fold change in experiment [7] is inactive: 0; in [2], inactive: -0.105; in [9] it was inactive: 0.17; in experiment [4], inactive: 0.071; in [10], inactive: 0.111; in experiment [6], inactive: 0.168.
For ZKSCAN8 (UniProt Q15776), the log2 fold change in experiment [2] is inactive: 0.091; in experiment [9], inactive: -0.001; in experiment [4] it was inactive: 0.191; in experiment [6], inactive: -0.218.
For the target ZBTB44 (UniProt Q8NCP5), the log2 fold change in experiment [8] was inactive: -0.181.
Regarding YBEY (UniProt P58557), the results for the log2 fold change in [2], in experiment [3] and in [4] were inactive: 0.001, inactive: -0.042 and inactive: 0.098, respectively.
XYLT2 (UniProt Q9H1B5): the log2 fold change in [1] is inactive: -0.038; in experiment [9], inactive: -0.046; in experiment [5], inactive: 0.092.
With ZFP36L2 (UniProt P47974), the log2 fold change in experiment [3] was inactive: 0.041.
On to ZFPM2 (UniProt Q8WW38), for which the log2 fold change in [8] is inactive: -0.028; in experiment [6], inactive: 0.128.
With ZDHHC9 (UniProt Q9Y397), the log2 fold change in experiment [2] is inactive: 0.058; in experiment [4] it was inactive: 0.099.
For the target XYLB (UniProt O75191), the log2 fold change was inactive: -0.031 in experiment [9] and inactive: -0.14 in experiment [3].
For the target ZNF225 (UniProt Q9UK10), the results for the log2 fold change in experiment [7] and in experiment [8] were inactive: 0.121 and inactive: 0.08, respectively.
Take ZDHHC16 (UniProt Q969W1): the log2 fold change is inactive: -0.033 in experiment [3] and inactive: 0.004 in [10].
As to ZCRB1 (UniProt Q8TBF4), the log2 fold change in [3] is inactive: 0.138.
For ZFHX4 isoform 5 (UniProt Q86UP3), the log2 fold change in experiment [1] was inactive: -0.193; in experiment [3] it was inactive: -0.1; in experiment [5] it was inactive: -0.152; in [10], inactive: -0.096; in experiment [6], inactive: 0.044.
As for ZDHHC13 (UniProt Q8IUH4), the log2 fold change was inactive: -0.249 in [8]; inactive: 0.035 in experiment [2]; inactive: 0.061 in [9]; inactive: -0.138 in experiment [3]; inactive: 0.014 in experiment [4].
Regarding ZDHHC6 (UniProt Q9H6R6), the log2 fold change in experiment [9] was active: -0.932.
Turning to ZBTB24 (UniProt O43167), the log2 fold change was inactive: 0.094 in experiment [8]; inactive: 0.317 in experiment [2]; inactive: 0.027 in experiment [9]; inactive: 0.038 in [3]; inactive: 0.17 in experiment [4]; inactive: -0.197 in experiment [6].
As for ZBED1 (UniProt O96006), the log2 fold change in experiment [7] is inactive: 0.119; in experiment [8], inactive: -0.047; in experiment [9], inactive: -0.218; in [10], inactive: -0.301; in experiment [6] it was inactive: -0.066.
Take YIPF1 (UniProt Q9Y548): the log2 fold change in [7] was inactive: 0.135; in experiment [3] it was inactive: -0.027; in experiment [10] it was inactive: -0.002; in experiment [6], inactive: -0.044.
Turning to XP32 (UniProt Q5T750), the log2 fold change in experiment [7] is inactive: 0.099; in experiment [8], inactive: -0.433; in experiment [2] it was inactive: -0.049; in [4] it was inactive: -0.235; in experiment [10] it was inactive: -0.749.
Take XPA (UniProt P23025): the log2 fold change was inactive: -0.156 in experiment [8]; inactive: -0.118 in [2]; inactive: -0.154 in experiment [9]; inactive: 0.154 in experiment [4]; inactive: -0.037 in experiment [10]; inactive: 0.019 in experiment [6].
Consider ZC3H7B (UniProt Q9UGR2), for which the log2 fold change is inactive: 0.061 in experiment [1]; inactive: 0.267 in experiment [2]; inactive: 0.342 in [4]; inactive: 0.268 in [5]; inactive: -0.525 in experiment [6].
As for ZFX isoform 3 (UniProt P17010), the log2 fold change in experiment [6] is inactive: -0.06.
ZG16B (UniProt Q96DA0): the figures for the log2 fold change in experiment [7] and in [8] were inactive: 0.113 and inactive: -0.644, respectively.
For the target ZFPM1 (UniProt Q8IX07), the log2 fold change in [7] was inactive: -0.437; in [2], inactive: 0.23; in [9], inactive: 0; in [3] it was inactive: 0.039; in [4], inactive: -0.16; in experiment [10], inactive: -0.17. Further, in experiment [6], the log2 fold change is inactive: 0.051.
Turning to XRCC2 (UniProt O43543), the log2 fold change in experiment [9] was inactive: -0.07; in [3] it was inactive: 0.009; in experiment [10] it was inactive: 0.031.
Regarding ZC3H11A (UniProt O75152), the log2 fold change was inactive: 0.048 in [7] and inactive: -0.042 in experiment [10].
In the case of ZFAND3 (UniProt Q9H8U3), the log2 fold change in experiment [7] was inactive: -0.037; in experiment [8] it was inactive: 0.025; in experiment [2], inactive: -0.036; in [9], inactive: 0; in experiment [3] it was inactive: 0.071; in [4], inactive: 0.104. The results for the log2 fold change in experiment [10] and in experiment [6] were inactive: 0 and inactive: -0.146, respectively.
In the case of ZBTB10 (UniProt Q96DT7), the log2 fold change in experiment [7] is inactive: 0.01; in experiment [8], inactive: -0.119; in [9], inactive: -0.027; in [3], inactive: -0.026; in [10], inactive: 0.081; in [6], inactive: 0.02.
As to ZFYVE21 isoform 2 (UniProt Q9BQ24), the log2 fold change is inactive: -0.02 in experiment [8]; inactive: 0 in [2]; inactive: -0.114 in experiment [3]; inactive: 0.089 in [4]; inactive: -0.023 in [6].
For ZKSCAN4 (UniProt Q969J2), the log2 fold change in [8] was inactive: -0.014; in experiment [2], inactive: 0.002; in experiment [4] it was inactive: -0.191; in [6], inactive: -0.076.
For the target ZNF106 (UniProt Q9H2Y7), the log2 fold change in [7] is inactive: -0.013; in [10], inactive: -0.054.
Turning to XIRP2 isoform 8 (UniProt A4UGR9), the log2 fold change in experiment [7] is inactive: 0.018; in [8], inactive: 0.038; in experiment [3] it was inactive: -0.114; in experiment [10], inactive: 0.011; in experiment [6], inactive: 0.216.
